Where cells or extracts were used, other partners may take part. For some of these results: Negatives hold for the conditions tested. For some of these results: Protein sequences can lack the tags named with them. For some of these results: The exact form of at least one protein or probe is not confirmed.

What all share (experiment): pull-down
For data set [1], the target named is T1, RanGAP1 (endogenous) (human (HeLa)) (UniProt P46060).
T1 sequence (looked up, limits assumed): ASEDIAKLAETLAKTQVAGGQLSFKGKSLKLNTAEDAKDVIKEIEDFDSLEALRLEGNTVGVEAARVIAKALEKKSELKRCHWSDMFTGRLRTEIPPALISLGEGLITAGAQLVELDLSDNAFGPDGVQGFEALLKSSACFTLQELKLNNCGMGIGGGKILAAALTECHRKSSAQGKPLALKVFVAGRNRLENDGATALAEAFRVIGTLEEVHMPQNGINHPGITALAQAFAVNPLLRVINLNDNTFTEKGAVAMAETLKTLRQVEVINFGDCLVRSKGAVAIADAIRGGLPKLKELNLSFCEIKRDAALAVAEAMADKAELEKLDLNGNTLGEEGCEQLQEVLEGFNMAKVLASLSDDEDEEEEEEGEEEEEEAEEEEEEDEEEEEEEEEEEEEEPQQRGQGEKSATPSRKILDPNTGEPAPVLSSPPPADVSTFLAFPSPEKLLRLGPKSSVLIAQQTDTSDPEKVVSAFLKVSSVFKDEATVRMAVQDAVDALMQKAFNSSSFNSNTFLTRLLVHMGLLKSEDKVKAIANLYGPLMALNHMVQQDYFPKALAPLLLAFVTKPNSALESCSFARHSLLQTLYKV
Conditions: 600 mM NaCl; biotin-11-CTP incorporated; pull-down: 0.1% Triton X-100, 600 mM NaCl, 5 mM MgCl2, 1 mM DTT, 4 C, 1 h; protein in an extract; label: biotin; letters put together from the description.

The target of data set [2] is RanBP2/Nup358 (endogenous) (human (HeLa)) (UniProt P49792). Conditions: 600 mM NaCl; biotin-11-CTP incorporated; pull-down: 0.1% Triton X-100, 600 mM NaCl, 5 mM MgCl2, 1 mM DTT, 4 C, 1 h; protein in an extract; label: biotin; letters put together from the description.
Data set [3] has as its target Ran (endogenous) (human (HeLa)) (UniProt P62826). Conditions: 600 mM NaCl; biotin-11-CTP incorporated; pull-down: 0.1% Triton X-100, 600 mM NaCl, 5 mM MgCl2, 1 mM DTT, 4 C, 1 h; protein in an extract; label: biotin; letters put together from the description.
For data set [4], the target named is Importin beta (endogenous) (human (HeLa)) (UniProt Q14974). Conditions: silver stain, MS; biotin-11-CTP incorporated; pull-down: 0.1% Triton X-100, 600 mM NaCl, 5 mM MgCl2, 1 mM DTT, 4 C, 1 h; protein in an extract; label: biotin; letters put together from the description.
Data set [5] deals with Ubc9 (endogenous) (human (HeLa)) (UniProt P63279). Conditions: silver stain, MS; biotin-11-CTP incorporated; pull-down: 0.1% Triton X-100, 600 mM NaCl, 5 mM MgCl2, 1 mM DTT, 4 C, 1 h; protein in an extract; label: biotin; letters put together from the description.
Data set [6] addresses T2, Nup62 (endogenous) (human (HeLa)) (UniProt P37198).
T2 sequence (looked up, limits assumed): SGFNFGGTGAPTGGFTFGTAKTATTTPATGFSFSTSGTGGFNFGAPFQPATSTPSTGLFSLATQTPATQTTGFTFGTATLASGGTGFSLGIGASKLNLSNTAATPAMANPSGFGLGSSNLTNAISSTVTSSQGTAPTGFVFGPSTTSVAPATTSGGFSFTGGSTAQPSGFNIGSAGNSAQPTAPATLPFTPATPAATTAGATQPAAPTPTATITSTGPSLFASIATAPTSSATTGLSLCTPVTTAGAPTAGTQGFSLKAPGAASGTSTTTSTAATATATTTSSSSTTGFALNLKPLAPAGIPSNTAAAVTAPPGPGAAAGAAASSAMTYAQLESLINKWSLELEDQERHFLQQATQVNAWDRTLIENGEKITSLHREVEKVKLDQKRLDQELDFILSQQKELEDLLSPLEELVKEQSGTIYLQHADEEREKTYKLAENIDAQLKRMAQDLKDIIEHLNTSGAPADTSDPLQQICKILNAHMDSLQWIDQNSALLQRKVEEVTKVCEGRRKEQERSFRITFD
Conditions: 600 mM NaCl; biotin-11-CTP incorporated; pull-down: 0.1% Triton X-100, 600 mM NaCl, 5 mM MgCl2, 1 mM DTT, 4 C, 1 h; protein in an extract; label: biotin; letters put together from the description.

The target in data set [7] is T3, Nup153 (endogenous) (human (HeLa)) (UniProt P49790).
T3 sequence (looked up, limits assumed): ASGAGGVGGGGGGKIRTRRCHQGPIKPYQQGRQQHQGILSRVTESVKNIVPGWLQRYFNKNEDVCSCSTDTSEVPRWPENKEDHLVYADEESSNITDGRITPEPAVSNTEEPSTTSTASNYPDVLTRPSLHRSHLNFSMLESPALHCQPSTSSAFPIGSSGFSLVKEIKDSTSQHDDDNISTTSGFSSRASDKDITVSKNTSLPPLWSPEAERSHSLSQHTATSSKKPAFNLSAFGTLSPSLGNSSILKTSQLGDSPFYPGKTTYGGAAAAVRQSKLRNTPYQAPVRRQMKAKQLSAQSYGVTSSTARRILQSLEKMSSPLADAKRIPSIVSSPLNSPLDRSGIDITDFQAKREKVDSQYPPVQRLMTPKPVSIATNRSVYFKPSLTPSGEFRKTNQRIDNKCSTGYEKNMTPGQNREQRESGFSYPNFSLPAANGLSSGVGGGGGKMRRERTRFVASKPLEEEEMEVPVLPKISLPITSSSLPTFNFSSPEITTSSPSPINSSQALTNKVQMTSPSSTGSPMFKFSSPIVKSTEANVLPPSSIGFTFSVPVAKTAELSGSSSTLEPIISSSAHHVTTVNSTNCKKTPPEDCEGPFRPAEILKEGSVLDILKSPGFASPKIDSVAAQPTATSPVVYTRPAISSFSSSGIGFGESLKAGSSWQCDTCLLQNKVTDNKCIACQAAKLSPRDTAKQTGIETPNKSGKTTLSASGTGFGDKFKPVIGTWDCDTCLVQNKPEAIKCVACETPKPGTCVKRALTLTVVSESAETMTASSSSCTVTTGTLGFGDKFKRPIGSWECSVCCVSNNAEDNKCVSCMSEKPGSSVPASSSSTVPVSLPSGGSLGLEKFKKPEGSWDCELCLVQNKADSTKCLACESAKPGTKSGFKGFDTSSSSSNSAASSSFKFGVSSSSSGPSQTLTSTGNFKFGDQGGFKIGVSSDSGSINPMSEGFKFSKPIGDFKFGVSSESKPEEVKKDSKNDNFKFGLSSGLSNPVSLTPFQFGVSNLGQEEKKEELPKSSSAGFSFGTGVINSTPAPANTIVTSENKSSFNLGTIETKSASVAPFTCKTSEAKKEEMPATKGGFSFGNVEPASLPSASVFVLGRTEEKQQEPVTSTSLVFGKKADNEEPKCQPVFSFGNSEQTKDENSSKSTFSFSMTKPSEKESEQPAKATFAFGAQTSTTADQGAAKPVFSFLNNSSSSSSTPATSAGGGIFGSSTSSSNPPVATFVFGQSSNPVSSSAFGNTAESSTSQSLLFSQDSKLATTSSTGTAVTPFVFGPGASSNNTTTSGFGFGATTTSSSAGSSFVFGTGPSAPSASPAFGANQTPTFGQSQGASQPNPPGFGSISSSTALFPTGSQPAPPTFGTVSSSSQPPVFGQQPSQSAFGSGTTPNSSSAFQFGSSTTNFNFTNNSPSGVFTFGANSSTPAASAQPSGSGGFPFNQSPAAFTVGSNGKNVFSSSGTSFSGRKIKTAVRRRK
Conditions: 600 mM NaCl; biotin-11-CTP incorporated; pull-down: 0.1% Triton X-100, 600 mM NaCl, 5 mM MgCl2, 1 mM DTT, 4 C, 1 h; protein in an extract; label: biotin; letters put together from the description.

As to “GGACCAUGGCACUGUGGAUGCGACUCCUACCCCUACUGGCACUGCUAGCCCUAUGGGGACCUGACCCAGCCGCAGC [7A-Ins biotinylated RNA (76 nt)]”, the binding result in data set [1], in data set [2] and in data set [3] was “no binding” throughout.

For the sequence “GGACCAUGGCCCUGUGGAUGCGCCUCCUGCCCCUGCUGGCGCUGCUGGCCCUCUGGGGACCUGACCCAGCCGCAGC [Ins biotinylated RNA (76 nt)]”, the binding result is listed as “binds” in data set [4]; “binds” in data set [5]; “binds” in data set [1]; “no binding” in data set [6]; “no binding” in data set [7]; “binds” in data set [2]. The binding result in data set [3] is given as “binds”.

The values are drawn from publication PMC3635865.
